The list is a part of this screen's results and no random one: it is rich in T/C values a quarter to a half above the control, in often repeated tests (any T/C) and in doses without a T/C. Other doses and runs of a compound stand elsewhere. T/C is the treated group as % of the vehicle group. Some entries give survivors of the animals treated and no T/C: the source files T/C as zero there, which appears to mark a toxic dose or a test without result, not a measured value. Some doses without a T/C left all or most animals alive at the check, yet need not have been tolerated: the source hardly ever lists a survival T/C far under the control, and the zero likely stands for such cases as well. Survivors were counted at the toxicity check, usually on the fifth day, unless a day is given; later deaths do not show. Schedule codes are those of the source, taken here to give the interval after Q, in days (D) or hours (H), and the number of doses after X. Some schedules carry Z or #; the key to these is not given. Where survival is the endpoint, this PubChem deposit counts one and a half times the control or more as active, and values a quarter to a half above the control carry no call in these data; other NCI protocols may use other cut-offs.
Tested on: L1210 leukemia ip in BDF1 mice, survival T/C
Test: NCI In Vivo Anticancer Drug Screen. Data for tumor model L1210 Leukemia (intraperitoneal) in B6D2F1 (BDF1) mice
Settings: T/C endpoint: mean survival time, higher T/C = longer survival
[1] = dose: 400.0 mg/kg/injection, schedule: Q01DX009 (ip), vehicle: saline with Tween-80
[2] = dose: 400.0 mg/kg/injection, schedule: Q04DX003 (ip), vehicle: saline with Tween-80
[3] = dose: 400.0 mg/kg/injection, schedule: Q01DX009 (ip), vehicle: Klucel (hydroxypropylcellulose) (HPC)
[4] = dose: 400.0 mg/kg/injection, schedule: Q01DX001 (ip), vehicle: saline with Tween-80
[5] = dose: 200.0 mg/kg/injection, schedule: Q01DX001 (ip), vehicle: carboxymethylcellulose (CMC)
[6] = dose: 400.0 mg/kg/injection, schedule: Q01DX001 (ip), vehicle: carboxymethylcellulose (CMC)
[7] = dose: 200.0 mg/kg/injection, schedule: Q04DX003 (ip), vehicle: other

CN(C)CC1CCC(CN(C)C)C1=O (stereo not drawn)
survivor count (dose: 37.5 mg/kg/injection, schedule: Q01DX001 (ip), vehicle: saline): 1 of 6

COC(=O)C1CC23CCCC12CC3 (stereo not drawn)
survivor count (dose: 400.0 mg/kg/injection, schedule: Q04DX002 (ip), vehicle: saline with Tween-80): 0 of 3

CC(=O)c1ccc(OC(=O)Nc2ccccc2F)cc1
survivor count (dose: 200.0 mg/kg/injection, schedule: Q01DX009 (ip), vehicle: saline with Tween-80): 0 of 6 | survivor count [1]: 0 of 6

O=c1[nH]cnc2c1nc1n2CCC1
survivor count [2]: 1 of 6

COc1ccc(NC(=S)Nc2ccccc2S)cc1
survivor count [1]: 3 of 3

Cc1ccc(Nc2ccc([N+](=O)[O-])cc2[N+](=O)[O-])cc1C
survivor count (dose: 100.0 mg/kg/injection, schedule: Q04DX003 (ip), vehicle: Klucel (hydroxypropylcellulose) (HPC)): 6 of 6

O=C(Nc1cc(C2=NCCN2)cc(C2=NCCN2)c1)Nc1cc(C2=NCCN2)cc(C2=NCCN2)c1
survivor count (dose: 12.0 mg/kg/injection, schedule: Q01DX Z (ip), vehicle: water): 0 of 6 | survivor count (dose: 25.0 mg/kg/injection, schedule: Q01DX Z (ip), vehicle: water): 0 of 6 | survivor count (dose: 50.0 mg/kg/injection, schedule: Q01DX Z (ip), vehicle: water): 0 of 6 | survivor count (dose: 100.0 mg/kg/injection, schedule: Q01DX Z (ip), vehicle: water): 0 of 6

CNC(=O)N(C)Cc1ccco1
survivor count [3]: 2 of 6

NC(=O)c1c(F)c(F)c(Oc2c(F)c(F)c(Oc3c(F)c(F)c(C(N)=O)c(F)c3F)c(F)c2F)c(F)c1F
survivor count (dose: 100.0 mg/kg/injection, schedule: Q04DX003 (ip), vehicle: saline with Tween-80): 6 of 6 | survivor count (dose: 200.0 mg/kg/injection, schedule: Q04DX003 (ip), vehicle: saline with Tween-80): 6 of 6 | survivor count [2]: 6 of 6

O=NN(CCCl)C(=O)Nc1ccc(Cn2cnc3c(=O)[nH]cnc32)cc1
T/C (dose: 2.0 mg/kg/injection, schedule: Q01DX009 (ip), vehicle: other): 138 % of control | T/C (dose: 3.0 mg/kg/injection, schedule: Q01DX009 (ip), vehicle: other): 128 % of control | T/C (dose: 23.0 mg/kg/injection, schedule: Q01DX001 (ip), vehicle: other): 148 % of control | T/C (dose: 93.0 mg/kg/injection, schedule: Q01DX001 (ip), vehicle: other): 126 % of control | survivor count (dose: 187.0 mg/kg/injection, schedule: Q01DX001 (ip), vehicle: other): 9 of 10 | survivor count (dose: 250.0 mg/kg/injection, schedule: Q01DX001 (ip), vehicle: other): 6 of 10 | survivor count (dose: 375.0 mg/kg/injection, schedule: Q01DX001 (ip), vehicle: other): 1 of 10

COC(=O)C(CC/C(=N\Nc1ccc([N+](=O)[O-])cc1[N+](=O)[O-])c1ccccc1)C(=O)OC
survivor count (dose: 100.0 mg/kg/injection, schedule: Q01DX001 (ip), vehicle: saline with Tween-80): 6 of 6 | survivor count (dose: 200.0 mg/kg/injection, schedule: Q01DX001 (ip), vehicle: saline with Tween-80): 6 of 6 | survivor count [4]: 6 of 6

N#C[C@@H]1C2C=CC(CC2)[C@H]1C#N
survivor count (dose: 2.4 mg/kg/injection, schedule: Q03HX024 (ip), vehicle: gum acacia): 8 of 10 | survivor count (dose: 3.6 mg/kg/injection, schedule: Q03HX024 (ip), vehicle: gum acacia): 1 of 10 | survivor count (dose: 5.4 mg/kg/injection, schedule: Q01DX009 (ip), vehicle: gum acacia): 0 of 10 | survivor count (dose: 5.4 mg/kg/injection, schedule: Q03HX024 (ip), vehicle: gum acacia): 0 of 10 | survivor count (dose: 8.0 mg/kg/injection, schedule: Q01DX009 (ip), vehicle: gum acacia): 0 of 10 | survivor count (dose: 8.0 mg/kg/injection, schedule: Q03HX024 (ip), vehicle: gum acacia): 0 of 10 | survivor count (dose: 12.0 mg/kg/injection, schedule: Q01DX009 (ip), vehicle: gum acacia): 0 of 10 | survivor count (dose: 12.0 mg/kg/injection, schedule: Q03HX024 (ip), vehicle: gum acacia): 0 of 10 | survivor count (dose: 16.0 mg/kg/injection, schedule: Q01DX001 (ip), vehicle: gum acacia): 1 of 10 | survivor count (dose: 16.0 mg/kg/injection, schedule: Q04DX003 (ip), vehicle: gum acacia): 0 of 10 | survivor count (dose: 24.0 mg/kg/injection, schedule: Q01DX001 (ip), vehicle: gum acacia): 0 of 10 | survivor count (dose: 24.0 mg/kg/injection, schedule: Q04DX003 (ip), vehicle: gum acacia): 0 of 10 | survivor count (dose: 36.0 mg/kg/injection, schedule: Q01DX001 (ip), vehicle: gum acacia): 0 of 10 | survivor count (dose: 36.0 mg/kg/injection, schedule: Q04DX003 (ip), vehicle: gum acacia): 0 of 10 | survivor count (dose: 54.0 mg/kg/injection, schedule: Q01DX001 (ip), vehicle: gum acacia): 0 of 10 | survivor count (dose: 54.0 mg/kg/injection, schedule: Q04DX003 (ip), vehicle: gum acacia): 0 of 10 | survivor count (dose: 80.0 mg/kg/injection, schedule: Q01DX001 (ip), vehicle: gum acacia): 0 of 10 | survivor count (dose: 80.0 mg/kg/injection, schedule: Q04DX003 (ip), vehicle: gum acacia): 0 of 10 | survivor count (dose: 120.0 mg/kg/injection, schedule: Q01DX001 (ip), vehicle: gum acacia): 0 of 10 | survivor count (dose: 120.0 mg/kg/injection, schedule: Q04DX003 (ip), vehicle: gum acacia): 0 of 10

CCCCCC/C(C)=N/O
survivor count [1]: 1 of 6

CN(CCCl)Cc1ccc(-c2c3ccccc3cc3c2ccc2ccccc23)cc1
survivor count (dose: 100.0 mg/kg/injection, schedule: Q01DX001 (ip), vehicle: carboxymethylcellulose (CMC)): 1 of 4 | survivor count [5]: 0 of 4 | survivor count [6]: 2 of 4

O=C(Nc1cccc(C2=NCCN2)c1)c1ccc2ccc(C(=O)Nc3cccc(C4=NCCN4)c3)cc2c1
survivor count (dose: 250.0 mg/kg/injection, schedule: Q01DX Z (ip), vehicle: water): 3 of 6 | survivor count (dose: 500.0 mg/kg/injection, schedule: Q01DX Z (ip), vehicle: water): 0 of 6

O=[N+]([O-])c1ccc(\C=C/C=C/C=C/C2(CCl)OCCO2)cc1
survivor count [4]: 3 of 3

CC(=O)c1ccc2c(c1)CCN2
survivor count [3]: 2 of 6

N/C(=N\O)c1ccc2ccc3cccnc3c2n1
survivor count [2]: 2 of 4

Nc1ccc(SCCCCCCSc2ccc(N)cc2)cc1
survivor count [7]: 6 of 6 | survivor count (dose: 400.0 mg/kg/injection, schedule: Q04DX003 (ip), vehicle: other): 4 of 6

O=C1C=CC(=O)N1C12CC3CC(CC(C3)C1)C2
survivor count (dose: 100.0 mg/kg/injection, schedule: Q04DX002 (ip), vehicle: Klucel (hydroxypropylcellulose) (HPC)): 0 of 3 | survivor count (dose: 200.0 mg/kg/injection, schedule: Q04DX002 (ip), vehicle: Klucel (hydroxypropylcellulose) (HPC)): 0 of 3 | survivor count (dose: 400.0 mg/kg/injection, schedule: Q04DX002 (ip), vehicle: Klucel (hydroxypropylcellulose) (HPC)): 0 of 3

CCCCCC(/C=N/NC(=O)c1cccc2ccccc12)=C\c1ccccc1
survivor count (dose: 200.0 mg/kg/injection, schedule: Q01DX001 (ip), vehicle: saline): 3 of 4

Oc1cccc2cccnc12.[Al]
survivor count (dose: 5.0 mg/kg/injection, schedule: Q01DX Z (ip), vehicle: carboxymethylcellulose (CMC)): 4 of 6

O=C(O)/C=C/c1c2ccc(=O)c(O)c-2oc2c(O)c(O)ccc12
survivor count [7]: 1 of 6

CN1C(=O)CC(/C=C\[N+](=O)[O-])c2ccccc21 (stereo not drawn)
survivor count [5]: 2 of 4

COc1cccc(OC#N)c1OC
survivor count (dose: 50.0 mg/kg/injection, schedule: Q01DX009 (ip), vehicle: Klucel (hydroxypropylcellulose) (HPC)): 5 of 6

O=P(NC(=S)OCCN1CC1)(NC(=S)OCCN1CC1)NC(=S)OCCN1CC1
survivor count [6]: 1 of 6

O=C(O)c1ccc(C(=O)O)c(O)c1O
survivor count (dose: 400.0 mg/kg/injection, schedule: Q04DX003 (ip), vehicle: saline): 2 of 6

CN1CCN(Cc2c(O)ccc3c4c(c(=O)oc23)CCCC4)CC1
survivor count [6]: 1 of 4

CNC(=O)Oc1cccc2c1C(=O)OC2=O
survivor count (dose: 400.0 mg/kg/injection, schedule: Q01DX001 (ip), vehicle: other): 1 of 6
